In patent US11427783B2, “Perfuming compositions” (Firmenich SA, priority 2016, dated 2022):

Assay: Odor threshold of perfuming compounds in air
[1] = Table 5, perfuming compounds having a green note
[2] = Table 8, perfuming compounds having a sweet note
[3] = Table 9, perfuming compounds having a gourmand note
[4] = perfuming compounds having a fruity note (Table 6)
[5] = Table 6, perfuming compounds having a fruity note

Row | Molecule | Odor Threshold [1] | Odor Threshold [4] | further results
1 | CCOC(=O)CC1(C)OCCO1 [ETHYL 2-METHYL-1,3-DIOXOLANE-2-ACETATE] | 1.62E−03 μg/l air | 1.62E−03 μg/l air | Odor Threshold (μg/l air) [2]: 1.62E−03 μg/l air; Odor Threshold (μg/l air) [3]: 1.62E−03 μg/l air
2 | CCC=CCC=C/C=C/C(=O)OCC [ETHYL (2E)-2,4,7-DECATRIENOATE] | 1.49E−02 μg/l air | – | Odor Threshold (μg/l air) [5]: 1.49E−02 μg/l air
3 | CCOC(=O)/C=C/c1ccccc1 [ETHYL (E)-3-PHENYL-2-PROPENOATE] | – | – | Odor Threshold (μg/l air) [5]: 2.38E−05 μg/l air
4 | CCCC(=O)OCC [ETHYL BUTANOATE] | 3.68E−04 μg/l air | 3.68E−04 μg/l air | –
5 | CCCCCC(=O)OCC [ETHYL HEXANOATE] | 9.11E−04 μg/l air | 9.11E−04 μg/l air | Odor Threshold (μg/l air) [2]: 9.11E−04 μg/l air; Odor Threshold (μg/l air) [3]: 9.11E−04 μg/l air
6 | CCOC(=O)C(C)C [ETHYL ISOBUTYRATE] | – | 1.14E−04 μg/l air | –
7 | CCOC(=O)Cc1ccccc1 [ETHYL PHENYLACETATE] | – | 4.19E−04 μg/l air | –
8 | CCCCCCC=O [HEPTANAL] | 2.03E−03 μg/l air | – | –
9 | CCCCCC(=O)O [HEXANOIC ACID] | 1.82E−02 μg/l air | – | Odor Threshold (μg/l air) [2]: 1.82E−02 μg/l air; Odor Threshold (μg/l air) [3]: 1.82E−02 μg/l air
10 | CCCCCCOC(=O)c1ccccc1O [HEXYL 2-HYDROXYBENZOATE] | 5.50E−03 μg/l air | – | Odor Threshold (μg/l air) [5]: 5.50E−03 μg/l air
11 | CCCCCCOC(C)=O [HEXYL ACETATE] | 1.32E−01 μg/l air | 1.32E−01 μg/l air | –
12 | CCCCCCOC(=O)CCCCC [HEXYL HEXANOATE] | – | – | Odor Threshold (μg/l air) [5]: 9.98E−02 μg/l air
13 | CCCCCCC#CC(=O)OC [METHYL 2-NONYNOATE] | 1.60E−03 μg/l air | – | –
14 | CCCCCC#CC(=O)OC [METHYL 2-OCTYNOATE″, METHYL 2-OCTYNOATE] | 8.31E−04 μg/l air | – | –
15 | COC(=O)/C=C/c1ccccc1 [METHYL (E)-3-PHENYL-2-PROPENOATE] | – | – | Odor Threshold (μg/l air) [5]: 3.13E−03 μg/l air
16 | CCCCCC(=O)OC [METHYL HEXANOATE] | 8.43E−02 μg/l air | 8.43E−02 μg/l air | –
17 | COC(=O)Cc1ccccc1 [METHYL PHENYLACETATE] | – | 3.21E−04 μg/l air | Odor Threshold (μg/l air) [2]: 3.21E−04 μg/l air; Odor Threshold (μg/l air) [3]: 3.21E−04 μg/l air
18 | CCCCCCCC=O [OCTANAL] | 2.77E−04 μg/l air | – | –

Row | Molecule | Odor Threshold [1] | Odor Threshold [4] | further results
19 | CCC(C)c1nccnc1OC (stereo not shown) [PYRAZOBUTYLE] | 7.20E−07 μg/l air | – | –
20 | O=Cc1ccc2c(c1)OCO2 [benzo[d][1,3]dioxole-5-carbaldehyde] | – | – | Odor Threshold (μg/l air) [3]: 1.01E−04 μg/l air
21 | CC(=O)OCc1ccccc1 [benzyl acetate] | – | 5.24E−03 μg/l air | –
22 | CCOC(=O)/C(C)=C/C(C)C [ethyl (2E)-2,4-dimethyl-2-pentenoate] | – | 9.55E−03 μg/l air | –
23 | CCCCC/C=C\C=C\C(=O)OCC [ethyl (2E,4Z)-2,4-decadienoate] | 3.07E−04 μg/l air | – | Odor Threshold (μg/l air) [5]: 3.07E−04 μg/l air
24 | CCCCCCC(=O)OCC [ethyl heptanoate] | – | 7.17E−03 μg/l air | –
25 | CCCCCCCC(=O)OCC [ethyl octanoate] | 5.30E−03 μg/l air | – | –
26 | CCCCCCCOC(C)=O [heptyl acetate] | – | 1.32E−01 μg/l air | –
27 | CCCCCC=O [hexanal] | 1.76E−03 μg/l air | – | –
28 | CCCCCCOC(=O)C(C)C [hexyl 2-methylpropanoate] | 7.15E−01 μg/l air | 7.15E−01 μg/l air | –
29 | C/C=C(\C)C(=O)OCCCCCC [hexyl (2E)-2-methyl-2-butenoate] | 1.16E−02 μg/l air | 1.16E−02 μg/l air | Odor Threshold (μg/l air) [2]: 1.16E−02 μg/l air
30 | CCCCCC/C=C/C(=O)OC [methyl (2E)-2-nonenoate] | 5.84E−02 μg/l air | 5.84E−02 μg/l air | –
31 | COC(=O)C=C1CCCC1 [methyl cyclopentylideneacetate] | – | 2.80E−02 μg/l air | –
32 | CCCCCCCCC=O [nonanal] | 8.14E−03 μg/l air | – | –
33 | CCCCCCCCOC(C)=O [octyl acetate] | – | 1.76E−01 μg/l air | –
34 | (2,2-DIMETHOXYETHYL)BENZENE | 4.55E−02 μg/l air | – | –
35 | (−)-(1S)-2,6,6-TRIMETHYL-BICYCLO[3.1.1]HEPT-2-ENE | 1.02E−01 μg/l air | – | –
